Source: patent US20080057055A1, “OLD-35 as an inflammatory agent” (priority 2004, published 2008)
These are yes or no findings as the source states them, for the method shown. Some entries that bind do so weakly or less than the wild type.

Target: T1, NF-κB p50 subunit (human), P19838
T1 chain: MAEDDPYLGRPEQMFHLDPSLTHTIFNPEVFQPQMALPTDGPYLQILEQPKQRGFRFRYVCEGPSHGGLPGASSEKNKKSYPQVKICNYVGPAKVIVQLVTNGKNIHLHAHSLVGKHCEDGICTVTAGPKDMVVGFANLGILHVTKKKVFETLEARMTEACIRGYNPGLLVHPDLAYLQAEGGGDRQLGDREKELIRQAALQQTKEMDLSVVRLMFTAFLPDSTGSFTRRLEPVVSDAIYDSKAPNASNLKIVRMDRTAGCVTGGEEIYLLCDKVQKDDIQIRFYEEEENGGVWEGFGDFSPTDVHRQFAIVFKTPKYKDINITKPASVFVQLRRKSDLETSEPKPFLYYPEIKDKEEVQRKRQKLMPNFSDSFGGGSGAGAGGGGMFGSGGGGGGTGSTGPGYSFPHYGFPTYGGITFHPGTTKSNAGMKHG
Assay: complex composition inferred from EMSA supershift
Conditions: remark: other sources report otherwise

binding: binds
B1: NF-κB p50 subunit (other, human, UniProt P19838 1-433, looked up)
chain: T1 chain
notes: also called NF-κB1 (p50/p105)
